# Measurements as given in PubChem BioAssay AID1347076 (National Center for Advancing Translational Sciences (NCATS), 2019).
# Out of some 400,000 compounds screened, about 13,000 (3.2%) were called active. This list was built around the results that the source calls inconclusive (neither active nor inactive); the mix of calls is not that of the screen. The call rests on the fitted dose curve; in most records, active means well fitted cell-killing curve with a large enough effect; inconclusive means small, poorly fitted or top-dose-only effect, or effect the other way; inactive means flat fitted curve, though single readings scatter. Where the call is inconclusive, the potency comes from a doubtful curve fit.
# Assay: qHTS assay for MDR1-selective chemotherapeutics: Primary screen using the drug-selected MDR subline cells KB-V1; further: nearly all actives have a fitted effect of over 60% in size
# Conditions: KB-V1 MDR cells viability, CellTiter-Glo, 72 h; activity change, negative = cytotoxicity: at 46.1 µM (top of the series)
# Summary of the method: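 KB-V1 cells (P-gp-expressing MDR subline of KB-3-1) in phenol-red-free DMEM with 10% FBS were exposed to library compounds over a concentration series for 72 h at 37 degrees C. Viability read by CellTiter-Glo luminescence; concentration-effect curves fitted after normalization.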
# On the % scale 0 is the no-effect control and ±100 the full control effect; potency means the concentration at half of the fitted maximal effect.
Compound,"activity change, negative = cytotoxicity",Potency
COc1ccc(C23CC4CC(CC(C4)C2)C3)cc1C(=O)NCCN(C)C,inactive: -8.9%,
O=C(NCCc1c[nH]c2ccccc12)c1cc(Cl)c2c(c1)OCO2,,"inconclusive: 25.9 µM [cytotoxic, single point]"
CCn1c(=O)c(C(=O)NNC(=O)c2ccccc2)c(O)c2ccccc21,,"inconclusive: 4.61 µM [cytotoxic, partial curve]"
CC(CC1CC(C)(C)OC1=O)C(=O)Nc1ccc([N+](=O)[O-])cc1 (stereo not drawn),inactive: -3.36%,
S=C(Nc1cccc(Cl)c1)N(CCCN1CCCC1)Cc1cccn1Cc1ccc(Cl)cc1,,active: 11.6 µM
NC(=O)C1(N2CCCCC2)CCN(Cc2nc(-c3cccs3)no2)CC1,,"inconclusive: 20.6 µM [cytotoxic, partial curve, poor fit]"
CCOc1ccc(NC(=O)CC(c2ccccc2)c2ccc(F)cc2)cc1 (stereo not drawn),,active: 18.4 µM
O=S(=O)(c1ccccc1Cl)N1CCC(O)(c2cccnc2)CC1,,"inconclusive: 32.6 µM [cytotoxic, single point]"
Oc1ccc(C[C@H]2CNC(=S)N2CC2CCCN2C[C@H](Cc2ccccc2)N2C[C@H](Cc3ccc(O)cc3)N(CC3CCCCCC3)C2=S)cc1 (stereo partly drawn),,"inconclusive: 16.4 µM [cytotoxic, single point]"
Cc1cccc(NC(=O)NCCN2CCCCC2)c1,inactive: 11.8%,
CC(=O)Nc1ccc(S(=O)(=O)Nc2nc3ccccc3nc2Nc2ccc(O)c(C(=O)O)c2)cc1,inactive: 14.5%,
Cc1cc(N(CN2CCCC2=O)C(=O)c2ccc(OC(C)C)cc2)no1,,"inconclusive: 0.164 µM [cytotoxic, full curve]"
CCC(=O)N1Cc2cc(C(=O)Nc3nccs3)nc(-c3cccc(-c4ccccc4OC)c3)c2[C@H]1CCO,,"inconclusive: 29.1 µM [cytotoxic, single point]"
O=C(NC(c1ccccc1)c1c(O)ccc2ccccc12)c1ccccc1Cl (stereo not drawn),,active: 20.6 µM
CC(=O)N(CCC1(C(C)C)CCOC(C)(C)C1)Cc1ccco1 (stereo not drawn),,active: 11.6 µM
Cc1ccc(/C=N/NC(=O)CN2CCN(Cc3ccccc3)CC2)o1,inactive: -1.62%,
CCN(c1ccccc1)S(=O)(=O)c1ccc(C(=O)Nc2ccncc2)cc1,,"inconclusive: 7.31 µM [cytotoxic, partial curve]"
CCn1cc(C(=O)O)c(=O)c2cc(F)c(N3CCN(C(=S)NC(=O)c4cccc(F)c4)CC3)cc21,inactive: 2.74%,
CCN(CC(=O)NCCC1=CCCCC1)S(=O)(=O)c1ccccc1,,"inconclusive: 6.51 µM [cytotoxic, partial curve, poor fit]"
Cc1ccc2nc(SCc3ccc([N+](=O)[O-])cc3)nc(C)c2c1,inactive: -12.6%,
Cc1ccc(CSCCNC(=O)CN(c2cccc(C)c2C)S(=O)(=O)c2ccccc2)cc1,,"inconclusive: 29.1 µM [cytotoxic, single point]"
COc1ccc(/C=C2/SC(=S)NC2=O)cc1OCc1ccccc1,inactive: -1.13%,
Cc1ccc(NC(=S)N(C)Cc2cn(C)c3ccccc23)cc1,,active: 20.6 µM

# 15 of the compounds above, bar-delimited:
Compound | activity change, negative = cytotoxicity | Potency
O=C(NCCc1c[nH]c2ccccc12)c1cc(Cl)c2c(c1)OCO2 |  | inconclusive: 25.9 µM [cytotoxic, single point]
CC(CC1CC(C)(C)OC1=O)C(=O)Nc1ccc([N+](=O)[O-])cc1 (stereo not drawn) | inactive: -3.36% | 
S=C(Nc1cccc(Cl)c1)N(CCCN1CCCC1)Cc1cccn1Cc1ccc(Cl)cc1 |  | active: 11.6 µM
NC(=O)C1(N2CCCCC2)CCN(Cc2nc(-c3cccs3)no2)CC1 |  | inconclusive: 20.6 µM [cytotoxic, partial curve, poor fit]
Oc1ccc(C[C@H]2CNC(=S)N2CC2CCCN2C[C@H](Cc2ccccc2)N2C[C@H](Cc3ccc(O)cc3)N(CC3CCCCCC3)C2=S)cc1 (stereo partly drawn) |  | inconclusive: 16.4 µM [cytotoxic, single point]
Cc1cccc(NC(=O)NCCN2CCCCC2)c1 | inactive: 11.8% | 
CC(=O)Nc1ccc(S(=O)(=O)Nc2nc3ccccc3nc2Nc2ccc(O)c(C(=O)O)c2)cc1 | inactive: 14.5% | 
Cc1cc(N(CN2CCCC2=O)C(=O)c2ccc(OC(C)C)cc2)no1 |  | inconclusive: 0.164 µM [cytotoxic, full curve]
CCC(=O)N1Cc2cc(C(=O)Nc3nccs3)nc(-c3cccc(-c4ccccc4OC)c3)c2[C@H]1CCO |  | inconclusive: 29.1 µM [cytotoxic, single point]
O=C(NC(c1ccccc1)c1c(O)ccc2ccccc12)c1ccccc1Cl (stereo not drawn) |  | active: 20.6 µM
Cc1ccc(/C=N/NC(=O)CN2CCN(Cc3ccccc3)CC2)o1 | inactive: -1.62% | 
CCN(c1ccccc1)S(=O)(=O)c1ccc(C(=O)Nc2ccncc2)cc1 |  | inconclusive: 7.31 µM [cytotoxic, partial curve]
CCN(CC(=O)NCCC1=CCCCC1)S(=O)(=O)c1ccccc1 |  | inconclusive: 6.51 µM [cytotoxic, partial curve, poor fit]
Cc1ccc(CSCCNC(=O)CN(c2cccc(C)c2C)S(=O)(=O)c2ccccc2)cc1 |  | inconclusive: 29.1 µM [cytotoxic, single point]
Cc1ccc(NC(=S)N(C)Cc2cn(C)c3ccccc23)cc1 |  | active: 20.6 µM

# Continued:

Compound,"activity change, negative = cytotoxicity",Potency
COc1ccccc1Nc1nc(-c2ccc3c(c2)NC(=O)CO3)cs1,inactive: -18.8%,
COc1ccc(C(=O)NC2CCCCCC2)cc1S(=O)(=O)N1CCCC1,,"inconclusive: 20.6 µM [cytotoxic, single point]"
CC(C)CN1C(=O)C(=O)N(CC(=O)N(C)CC(=O)Nc2ccc(F)cc2)C1=O,inactive: -0.184%,
Cc1cccc(N2C(=O)N(Cc3ccc(C(C)(C)C)cc3)c3ccccc3S2(=O)=O)c1,,"inconclusive: 1.84 µM [cytotoxic, full curve, poor fit]"
Cc1c(NC(=O)C(=O)/C=C(\O)c2ccc(Cl)cc2)c(=O)n(-c2ccccc2)n1C,,"inconclusive: 25.9 µM [cytotoxic, single point]"
O=C(NC1CCCCC1)C(=O)c1c[nH]c2ccccc12,,"inconclusive: 16.4 µM [cytotoxic, partial curve]"
N#CC(C#N)=C1SC(=Nc2ccccc2)C(=Nc2ccccc2)N1c1ccccc1,,"inconclusive: 20.6 µM [cytotoxic, single point]"
COc1cc(CO)cc(Br)c1OCC(=O)N1CCCCC1,,"inconclusive: 13 µM [cytotoxic, partial curve, poor fit]"
CC(OC(=O)/C(C#N)=C/c1ccco1)C(=O)N(C)c1ccccc1 (stereo not drawn),,"inconclusive: 6.51 µM [rising, partial curve, poor fit]"
COc1ccc(OC)c(C(=O)COC(=O)COc2ccccc2)c1,inactive: 15.5%,
COc1ccc(Cc2c(-c3ccc(Cl)cc3)nc3c(C)cc(Br)cn23)c(C)c1,,"inconclusive: 23.1 µM [cytotoxic, single point]"
CN(C)c1ccc(CNC2C3CC4CC(C3)CC2C4)cc1 (stereo not drawn),,"inconclusive: 18.4 µM [cytotoxic, partial curve, poor fit]"
COCCCOc1ccnc(CS(=O)c2nc3ccccc3[nH]2)c1C (stereo not drawn),,"inconclusive: 8.2 µM [cytotoxic, partial curve]"
CCN(CC)CCC(=O)N1C/C(=C/c2ccccc2)C(=O)/C(=C\c2ccccc2)C1,,"inconclusive: 3.26 µM [cytotoxic, partial curve, poor fit]"
CCOC(=O)C1(Cc2ccc(OC)cc2)CCN(C(=O)c2cncs2)CC1,,"inconclusive: 29.1 µM [cytotoxic, single point]"
COc1ccc(S(=O)(=O)N(C)C[C@H]2OCc3cnnn3CCCC(=O)N([C@@H](C)CO)C[C@H]2C)cc1,inactive: -11.2%,
CCOC(=O)c1c(C)c(C(=O)NC2CCCCCC2)c(C)n1C,,active: 8.2 µM
O=C(/C=C/c1ccc(Cl)cc1)N1CCN(c2ccccn2)CC1,,"inconclusive: 18.4 µM [cytotoxic, single point]"
CCCC(=O)Oc1ccc(N(C(=O)CCC)S(=O)(=O)c2cccc([N+](=O)[O-])c2)cc1,,"inconclusive: 23.1 µM [cytotoxic, partial curve, poor fit]"
COc1ccc(C(C(=O)NC2CCCCC2)N(C(=O)Cc2c[nH]c3ccccc23)c2ccccc2)cc1OC (stereo not drawn),,active: 23.1 µM
COc1ccc(C(C(=O)NC(C)(C)C)N(C(=O)CCC(=O)Nc2cc(C)on2)c2cccc(C)c2C)cc1 (stereo not drawn),,"inconclusive: 5.8 µM [cytotoxic, partial curve]"
COc1ccccc1NC(=O)CSC(N)=O,inactive: -2.32%,
CC(=O)N1CCc2cc(S(=O)(=O)NC(Cc3ccccc3)C(=O)O)ccc21 (stereo not drawn),,"inconclusive: 9.2 µM [rising, partial curve, poor fit]"

Compound,"activity change, negative = cytotoxicity",Potency
Cc1c(C(=O)N2CCN(c3ccccc3)CC2)sc2ncnc(N3CCN(c4ccccn4)CC3)c12,,"inconclusive: 23.1 µM [cytotoxic, partial curve, poor fit]"
Cc1ccc(C)c(S(=O)(=O)N2CCCOC2CNC(=O)C(=O)NCc2ccc3c(c2)OCO3)c1 (stereo not drawn),,"inconclusive: 8.2 µM [cytotoxic, partial curve]"
O=C(NCCc1ccc2c(c1)OCCO2)c1cc(S(=O)(=O)N2CCCC2)ccc1Br,,active: 20.6 µM
S=C(NCCSCc1ccc(Cl)cc1Cl)Nc1ccccc1,,"inconclusive: 29.1 µM [cytotoxic, single point]"
COc1cc(C(=O)NCCSc2ccccc2)cc(OC)c1OC,,"inconclusive: 29.1 µM [cytotoxic, single point]"
Cc1ccc(-c2nnn(CC(=O)N(Cc3cccs3)C(C(=O)NC3CCCC3)c3ccco3)n2)o1 (stereo not drawn),,"inconclusive: 2.31 µM [cytotoxic, full curve]"
CC(Oc1ccc(Br)cc1)C(=O)Nc1nnc(C2CC2)s1 (stereo not drawn),,"inconclusive: 16.4 µM [cytotoxic, partial curve, poor fit]"
COc1ccc(CN(C)C(=O)C2CCN(S(=O)(=O)c3cccs3)CC2)cc1F,inactive: -9.33%,
Cc1cccc(C)c1NC(=O)CN1CCc2ccccc2C1,inactive: 8.54%,
CNC(=S)N(Cc1ccco1)Cc1cc2cc(OC)c(OC)cc2[nH]c1=O,inactive: -4.16%,
O=C(Nc1cccc(NC(=O)c2cccc(F)c2)n1)c1cccc(F)c1,,"inconclusive: 20.6 µM [cytotoxic, single point]"
CCN(CC)S(=O)(=O)c1ccc2c(c1)nc(SC(C)C(=O)NCC1CCCO1)n2CC (stereo not drawn),,"inconclusive: 9.2 µM [cytotoxic, partial curve]"
CN(Cc1ccccc1)C(=O)CCC1CCN(C(=O)c2ccco2)CC1,,"inconclusive: 23.1 µM [cytotoxic, single point]"
CCOc1ccccc1/C=N/NC(=O)c1nnn(-c2nonc2N)c1CN1CCCC1,inactive: 19.4%,
CCOc1ccc(N(CC(=O)NCc2cccs2)S(=O)(=O)c2c(C)noc2C)cc1,,"inconclusive: 20.6 µM [cytotoxic, single point]"
N#CCc1ccc(OC(=O)c2cnccc2C(F)(F)F)cc1,,"inconclusive: 29.1 µM [rising, single point]"
COc1ccc(OC)c(Nc2nc(-c3sc(N)nc3C)cs2)c1,inactive: -0.316%,
Cc1cccc(C)c1NC(=O)CN(C)S(=O)(=O)c1ccc2[nH]c3c(c2c1)CCCC3,,"inconclusive: 23.1 µM [cytotoxic, single point]"
COC(=O)C(CCC(C(=O)OC)N1C(=O)c2ccccc2C1=O)N1C(=O)c2ccccc2C1=O (stereo not drawn),,"inconclusive: 10.3 µM [cytotoxic, partial curve]"
Cc1cc(-c2ccccc2)nc(N/N=C/c2ccco2)n1,,"inconclusive: 29.1 µM [cytotoxic, single point]"
CC(=O)Nc1ccccc1OCCOc1ccc(Br)cc1,,active: 18.4 µM
COc1ccc(N2CCN(C(=O)CN3C(=O)NC(C)(c4ccc5ccccc5c4)C3=O)CC2)cc1 (stereo not drawn),,active: 2.31 µM
